Measured values from paper PMC7819943, “Rice protein-binding microarrays: a tool to detect cis-acting elements near promoter regions in rice”.
This is one part of the list.

The chains behind the UniProt entries cited, without tags or fusion partners.
UniProt Q0JBA9, entry or part of it: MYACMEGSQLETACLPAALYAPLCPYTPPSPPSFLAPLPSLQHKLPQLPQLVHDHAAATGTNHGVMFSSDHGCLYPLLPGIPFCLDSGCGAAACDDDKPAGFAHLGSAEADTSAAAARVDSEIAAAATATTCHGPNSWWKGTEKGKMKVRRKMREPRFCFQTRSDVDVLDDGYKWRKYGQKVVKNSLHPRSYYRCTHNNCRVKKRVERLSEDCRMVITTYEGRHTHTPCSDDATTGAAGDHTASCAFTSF

Each sequence was assayed against OsWRKY34 (Oryza sativa, UniProt Q0JBA9 1-250) (assay: protein-binding microarray (RPBM); PBS, 2% BSA, 51.3 ng/ul salmon testes DNA, 50 uM zinc acetate, 200 nM TF, 25 C, 1 h; high values mean tight binding). Conditions: protein: recombinant; tags: N-terminal polyhistidine and DsRed monomer fusion (pET32a); label: CyDye5-dUTP incorporated in the synthesized complementary strand; 3' TTTTT single-stranded linker to array surface; dsDNA, one strand shown.
Outline: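 The binding signal for each feature is its fluorescence intensity in arbitrary units. An Axon 4000B scanner was used to read a custom Agilent array that had been made double-stranded with Cy5-dUTP primer extension, blocked with 2% BSA, incubated at 25 °C for 1 h with 200 nM protein in PBS, 2% BSA, salmon testes DNA and 50 µM zinc acetate, and washed. The protein was an N-terminal polyhistidine–DsRed transcription factor fusion from E. coli BL21-CodonPlus, purified on Ni–NTA.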

Sequence | binding signal
AAAATTAGGCGCATTCATTCTTGACCTTACGTACCGAGATCGGAGTCACCTAGTGCAG | 9210 fluorescence intensity (a.u.)
TTGCCGCATCACCCGTCGCCACCATCACCGCCGTCGCGTCCGGAGTCACCTAGTGCAG | 9390 fluorescence intensity (a.u.)
GAGTGAACATCGTCGTCTGCATCTACTCGATCGCGCAAGCCGGAGTCACCTAGTGCAG | 8410 fluorescence intensity (a.u.)
ACTTAATACTAAGCATTCCTGTATTTTTCCTACCAATCATCGGAGTCACCTAGTGCAG | 9010 fluorescence intensity (a.u.)
ATTATTTTCCTCTCATTTGATTCATTGTTAAATATACTACCGGAGTCACCTAGTGCAG | 8330 fluorescence intensity (a.u.)
GAGAATTCGATGTTCCATCACTCTTAAGTTTAGGTTTTTCCGGAGTCACCTAGTGCAG | 8510 fluorescence intensity (a.u.)
CGCCTCGGCCTCGCTCGCTTTCCCCTACTTCCAGCGATTTCGGAGTCACCTAGTGCAG | 9380 fluorescence intensity (a.u.)
CCACTGTTCATCTTCAACCTCCAGCCATTCTTGTGTGTGACGGAGTCACCTAGTGCAG | 8320 fluorescence intensity (a.u.)
TTAAGTATGCTTTGCTGCTGCTGCTCTTTCTTCTCTCTGCCGGAGTCACCTAGTGCAG | 9940 fluorescence intensity (a.u.)
TATATCCCTTTCACCCGCGCAGTCTCCATCGCCGCCGTTTCGGAGTCACCTAGTGCAG | 11100 fluorescence intensity (a.u.)
TCACCGGTCTCATCCCCGTCATATGCATCCTTATCTCCAACGGAGTCACCTAGTGCAG | 10500 fluorescence intensity (a.u.)
TATATGCAATTTTCGTGTTATAACTATCCTGCTCTCGATCCGGAGTCACCTAGTGCAG | 8840 fluorescence intensity (a.u.)
TTCGTGTCTAACATTTGACTGTCTGTCTTATTTATTTTTTCGGAGTCACCTAGTGCAG | 8640 fluorescence intensity (a.u.)
CCTTCTTGCTGTGCACTCCCTCCTCAAAAAGAATGCAATTCGGAGTCACCTAGTGCAG | 9810 fluorescence intensity (a.u.)
TCATATTTCATGTCCATGGTAATTTTCATTATTTATTTTACGGAGTCACCTAGTGCAG | 8470 fluorescence intensity (a.u.)
TGCCAAGATCTTTCTGTGTTGAGGTATATGTCCATTTTGTCGGAGTCACCTAGTGCAG | 12000 fluorescence intensity (a.u.)
GCCGCTCGCCTGCAGCCCAAACATCTCCGATCTCCGGCGACGGAGTCACCTAGTGCAG | 8840 fluorescence intensity (a.u.)
TGTTTTTTGATCGATTCAATTCCTCGCGTCGCGCGACATGCGGAGTCACCTAGTGCAG | 11300 fluorescence intensity (a.u.)
AGTATTCCACCACGCGCTGCCCTCCGGTCGTTGTCCCATCCGGAGTCACCTAGTGCAG | 8940 fluorescence intensity (a.u.)
TCACCAACTCTTCTTATAATATATATATTTTGGTAACCCTCGGAGTCACCTAGTGCAG | 10000 fluorescence intensity (a.u.)
TGTTTATCTATTTTGTGTTGGTATTATTATTTCTTGTATACGGAGTCACCTAGTGCAG | 8850 fluorescence intensity (a.u.)

Two entries from above in another layout:
Sequence	binding signal
AAAATTAGGCGCATTCATTCTTGACCTTACGTACCGAGATCGGAGTCACCTAGTGCAG	9210 fluorescence intensity (a.u.)
TCACCGGTCTCATCCCCGTCATATGCATCCTTATCTCCAACGGAGTCACCTAGTGCAG	10500 fluorescence intensity (a.u.)

Following part

Sequence | binding signal
TATCAGTTCATACTCTGCTCCGCCATAAACATTGCCGATTCGGAGTCACCTAGTGCAG | 9790 fluorescence intensity (a.u.)
TTTCTGATTTTGTTTTGCTATTGTTTTGTTTGTCTTGTTTCGGAGTCACCTAGTGCAG | 12600 fluorescence intensity (a.u.)
CACTCTTTTTTTTTCAGCCGTTCGATCGAATCCTCATCAGCGGAGTCACCTAGTGCAG | 8510 fluorescence intensity (a.u.)
CCCCGTGGCCCGTGCGGCCGTGCCCCGCTCGCGCGCGTCTCGGAGTCACCTAGTGCAG | 8950 fluorescence intensity (a.u.)
TTGTGCCGCACTAGTGGATATGTTTTCGGTAGGAATTTTACGGAGTCACCTAGTGCAG | 8960 fluorescence intensity (a.u.)
AGACGAATGGTCAAACACGTATTAAAAAGTCAACGGTGTCCGGAGTCACCTAGTGCAG | 19700 fluorescence intensity (a.u.)
GTGGGAGTAGTTGAGGTCAGGAATAAAGCCCTGTTCCGGCCGGAGTCACCTAGTGCAG | 8890 fluorescence intensity (a.u.)
TTGTGTGAAGTGTATTGGTTATTTTAGCTTCATAGCTTGTCGGAGTCACCTAGTGCAG | 9050 fluorescence intensity (a.u.)
CTTTCACCCTAAGATCTTTCTGCCTGTCCATGTCCAACCACGGAGTCACCTAGTGCAG | 10800 fluorescence intensity (a.u.)
TCCGTCTGTCTATAGCTACTATTAAAGGAGGGGAGGCTCTCGGAGTCACCTAGTGCAG | 8130 fluorescence intensity (a.u.)
GCCACCATAGCCGTCGCCGTCTCGTACGCCCATCCCACCCCGGAGTCACCTAGTGCAG | 10200 fluorescence intensity (a.u.)
GATTTAGTTTTAGTTTTTGTTTTTTTCCCACTTGGTTCTTCGGAGTCACCTAGTGCAG | 9450 fluorescence intensity (a.u.)
AAATCTATATTATCGTCTGTACTTACTGTAATTTAAGCCACGGAGTCACCTAGTGCAG | 9980 fluorescence intensity (a.u.)
TCTCCTATAAAAGGCACTCCATCAATTGATCCTTGACATACGGAGTCACCTAGTGCAG | 8410 fluorescence intensity (a.u.)
TTCACCGCTGCCACCACACCTCTCCTCTCCTCTCCTCTCCCGGAGTCACCTAGTGCAG | 8380 fluorescence intensity (a.u.)
CAACATAATAGGCCTCTGACTCCCTGACTCCTTTGGTCGGCGGAGTCACCTAGTGCAG | 8060 fluorescence intensity (a.u.)
AGATATTTTTTTTGACAAAATTCAAACTCTAGCTGTGTTTCGGAGTCACCTAGTGCAG | 8320 fluorescence intensity (a.u.)
ACAGCGCCGCCGCAATTCGCTCGCCGCCGCCGCCGCCGCCCGGAGTCACCTAGTGCAG | 9220 fluorescence intensity (a.u.)
ACTTTACTCTAGTTATTTTTTTTAGCCTATATTTAATACTCGGAGTCACCTAGTGCAG | 8470 fluorescence intensity (a.u.)
GCTAGCATCGAGCGTTCTTTCTCTCCTCGGGCTCTCGTTGCGGAGTCACCTAGTGCAG | 9210 fluorescence intensity (a.u.)
ACGATGTGTCCTTCTATTTTATTCTGCATTTGGAATTCTACGGAGTCACCTAGTGCAG | 9840 fluorescence intensity (a.u.)
